Measurements reported in PubChem BioAssay AID743454 (Peter MacCallum Cancer Centre, 2014)

Test: 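Knock-downs lowering viability or raising caspase 3/7 activity in vorinostat-treated resistant cells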 (primary screen)
Cells: human HCT116-VR colon cancer cells, selected for vorinostat resistance
Knock-down reagent: siRNA pool against human genes, 40 nM siRNA pool
Time to read-out: vorinostat for 24 h, read-out about 72 h after transfection
Conditions: vorinostat at 2.5 µM final
Detection: 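Cell viability by CellTiter-Fluor and caspase 3/7 activity by luminescence, each scaled to mock wells per plate, duplicates averaged, then robust z-scored over all plates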
Direction: viability robust z-score: higher = more viable cells than screen typical; caspase robust z-score: higher = more caspase 3/7 activity than screen typical
Call rule: 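Hits are knock-downs in viability class RV1/RV2 or caspase class CA1/CA2, excluding ones that killed cells in the no-drug cell-count arm; hits then retested with single siRNAs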
The whole screen tested about 18,000 reagents; shown is a part drawn at random. Over the whole deposit, 450 (2.5%) are marked active. 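Single biological run; no consistent viability z cut-off exists, so the class columns, not z-scores, define the calls.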 Entries without a mark were called inactive.

ANXA9 — viability hit class = no change; caspase hit class = no change; viability robust z-score = -1.23; caspase robust z-score = -0.76
AARSD1 — viability hit class = no change; caspase hit class = no change; viability robust z-score = -0.18; caspase robust z-score = 0
PPOX — viability hit class = no change; caspase hit class = no change; viability robust z-score = -0.95; caspase robust z-score = 1.75
NELFCD — viability hit class = no change; caspase hit class = no change; viability robust z-score = -0.66; caspase robust z-score = -0.21
CCDC3 — viability hit class = no change; caspase hit class = no change; viability robust z-score = 0.11; caspase robust z-score = -0.6
APPBP2 — viability hit class = no change; caspase hit class = no change; viability robust z-score = 0.02; caspase robust z-score = -0.44
PCDHA8 — viability hit class = no change; caspase hit class = no change; viability robust z-score = 1.73; caspase robust z-score = -0.34
SSX6P — viability hit class = no change; caspase hit class = no change; viability robust z-score = -0.72; caspase robust z-score = -0.82
HNF4A — viability hit class = no change; caspase hit class = no change; viability robust z-score = 0.3; caspase robust z-score = -0.04
CDC42SE2 — viability hit class = no change; caspase hit class = no change; viability robust z-score = -0.21; caspase robust z-score = 0.08
RGPD2 — viability hit class = no change; caspase hit class = no change; viability robust z-score = -0.82; caspase robust z-score = 0.84
HRH2 — viability hit class = no change; caspase hit class = no change; viability robust z-score = -1.77; caspase robust z-score = 4.3
SERF1A — viability hit class = no change; caspase hit class = no change; viability robust z-score = -0.29; caspase robust z-score = -0.55
NAIF1 — viability hit class = no change; caspase hit class = no change; viability robust z-score = -1.12; caspase robust z-score = 0.7
DDX43 — viability hit class = no change; caspase hit class = no change; viability robust z-score = -1.24; caspase robust z-score = 0.69
SPCS2P4 — viability hit class = no change; caspase hit class = no change; viability robust z-score = -0.21; caspase robust z-score = -0.56
CREB3L2 — viability hit class = no change; caspase hit class = no change; viability robust z-score = -0.28; caspase robust z-score = 0.02
TRHR — viability hit class = RV2 (reduced viability) (active); caspase hit class = no change; viability robust z-score = -3.72; caspase robust z-score = 3.4
STKLD1 — viability hit class = no change; caspase hit class = no change; viability robust z-score = -2.5; caspase robust z-score = 1.57
ADCY2 — viability hit class = no change; caspase hit class = no change; viability robust z-score = -0.06; caspase robust z-score = 0.66
AADAC — viability hit class = no change; caspase hit class = no change; viability robust z-score = -0.26; caspase robust z-score = 1.76
